Measurements reported in PubChem BioAssay AID1159584 (Peter MacCallum Cancer Centre, 2016).
Assay: 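Genes that CDH1-null MCF10A cells selectively depend on to survive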 (primary screen). System: human MCF10A breast epithelial cells, parental and CDH1-null. Reagents: siRNA against human genes. Detection: 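ATP luminescence (CellTiter-Glo) viability per line relative to mean mock wells over all plates, and the ratio of CDH1-null to parental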. Scale: CDH1-null / parental viability ratio: higher = CDH1-null cells survive relatively better than parental.
Shown is a random part of about 18,000 reagents. Further read-outs or replicates are left out here. Not stated in the record: the amount of reagent, the time to read-out.

Knock-down of ADGRL3 gave: CDH1-null / parental viability ratio 0.79.
Knock-down of CSTB gave: CDH1-null / parental viability ratio 0.87.
MLF1 gave CDH1-null / parental viability ratio 0.67.
Against GNG12, the values are CDH1-null / parental viability ratio 0.92.
Against DENND11, the entry reads CDH1-null / parental viability ratio 0.76.
Depletion of CENPF gave: CDH1-null / parental viability ratio 1.07.
Silencing of CA1 gave: CDH1-null / parental viability ratio 1.11.
CEACAM5 scored CDH1-null / parental viability ratio 1.25.
For PMS1, the entry reads CDH1-null / parental viability ratio 1.01.
Depletion of C16orf54 resulted in: CDH1-null / parental viability ratio 1.3.
Knock-down of GPR19 came out at: CDH1-null / parental viability ratio 0.81.
Against SOX21 the deposit lists CDH1-null / parental viability ratio 1.21.
Depletion of PIMREG gave: CDH1-null / parental viability ratio 1.
HOXA7 gave CDH1-null / parental viability ratio 1.01.
FBXO36 gave CDH1-null / parental viability ratio 0.86.
For GDPD2, the values are CDH1-null / parental viability ratio 1.12.
RNF7 gave CDH1-null / parental viability ratio 1.02.
Silencing of A1CF resulted in: CDH1-null / parental viability ratio 0.91.
APOBEC3G scored CDH1-null / parental viability ratio 0.8.
Depletion of GOLPH3L came out at: CDH1-null / parental viability ratio 1.
Against DSG2, the entry reads CDH1-null / parental viability ratio 1.42.

Laid out differently: entries from further up
gene knocked down	CDH1-null / parental viability ratio
C16orf54	1.3
GPR19	0.81
SOX21	1.21

The listing continues.
Silencing of NT5C2 came out at: CDH1-null / parental viability ratio 1.
With knock-down of P2RY8, the screen gave CDH1-null / parental viability ratio 0.77.
AP1G2 showed CDH1-null / parental viability ratio 1.19.
HSPA1A showed CDH1-null / parental viability ratio 0.98.
Knock-down of WWOX resulted in: CDH1-null / parental viability ratio 1.01.
Depletion of CASQ1 came out at: CDH1-null / parental viability ratio 0.62.
RHBDD1 showed CDH1-null / parental viability ratio 1.04.
Against OAZ1, the values are CDH1-null / parental viability ratio 0.95.
With knock-down of SEZ6L2 the results were CDH1-null / parental viability ratio 1.26.
Knock-down of GINS4 resulted in: CDH1-null / parental viability ratio 1.32.
OPN4 scored CDH1-null / parental viability ratio 1.34.
After knock-down of HNRNPH3, the record shows CDH1-null / parental viability ratio 0.95.
After knock-down of NRARP, the screen gave CDH1-null / parental viability ratio 1.06.
GALNT17 gave CDH1-null / parental viability ratio 0.99.
With knock-down of ATOSB, the screen gave CDH1-null / parental viability ratio 1.28.
Against KBTBD7, the entry reads CDH1-null / parental viability ratio 1.13.
With knock-down of CARD11, the screen gave CDH1-null / parental viability ratio 0.86.
Silencing of ECI2 resulted in: CDH1-null / parental viability ratio 1.14.
With knock-down of COL9A2, the record shows CDH1-null / parental viability ratio 1.26.
Silencing of KY resulted in: CDH1-null / parental viability ratio 1.14.
For SP4 the deposit lists CDH1-null / parental viability ratio 0.95.
With knock-down of SCYL1, the record shows CDH1-null / parental viability ratio 0.93.
For IQCN, the values are CDH1-null / parental viability ratio 1.14.
With knock-down of MGAM, the screen gave CDH1-null / parental viability ratio 1.15.
